In the supplement of paper PMC10849652:
Some of the results follow.

Sequences of proteins named here, by UniProt entry; tags and fusion partners are left off. A change or cut given only in a name is not applied to a line headed by its entry.
UniProt O43493: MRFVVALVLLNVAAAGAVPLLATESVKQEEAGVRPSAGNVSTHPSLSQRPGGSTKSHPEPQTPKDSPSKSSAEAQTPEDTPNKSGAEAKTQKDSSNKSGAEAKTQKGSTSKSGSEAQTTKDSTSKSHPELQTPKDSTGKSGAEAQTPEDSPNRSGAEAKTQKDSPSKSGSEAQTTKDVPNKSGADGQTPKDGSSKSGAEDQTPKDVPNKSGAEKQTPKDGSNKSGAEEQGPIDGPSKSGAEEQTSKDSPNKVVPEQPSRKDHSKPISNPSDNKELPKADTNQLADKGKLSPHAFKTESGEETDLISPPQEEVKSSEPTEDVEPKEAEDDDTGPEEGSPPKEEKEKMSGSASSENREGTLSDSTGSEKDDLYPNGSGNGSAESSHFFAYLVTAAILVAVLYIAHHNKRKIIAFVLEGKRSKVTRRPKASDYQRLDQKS
UniProt Q969X1: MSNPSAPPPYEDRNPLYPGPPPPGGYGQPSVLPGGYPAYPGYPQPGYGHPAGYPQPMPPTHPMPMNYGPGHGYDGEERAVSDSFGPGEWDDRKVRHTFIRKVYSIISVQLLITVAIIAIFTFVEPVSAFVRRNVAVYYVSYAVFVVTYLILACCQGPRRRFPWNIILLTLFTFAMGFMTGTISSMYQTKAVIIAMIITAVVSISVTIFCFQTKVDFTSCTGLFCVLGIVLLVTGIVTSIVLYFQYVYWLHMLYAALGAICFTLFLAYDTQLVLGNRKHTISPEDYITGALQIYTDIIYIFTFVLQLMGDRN
UniProt Q9NPL8: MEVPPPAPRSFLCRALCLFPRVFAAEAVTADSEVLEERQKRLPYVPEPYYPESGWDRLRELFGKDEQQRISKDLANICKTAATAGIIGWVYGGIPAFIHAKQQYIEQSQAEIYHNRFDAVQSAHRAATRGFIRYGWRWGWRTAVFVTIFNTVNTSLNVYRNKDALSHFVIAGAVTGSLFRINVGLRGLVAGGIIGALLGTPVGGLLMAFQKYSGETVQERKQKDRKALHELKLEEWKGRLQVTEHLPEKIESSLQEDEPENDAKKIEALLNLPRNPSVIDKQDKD
UniProt Q9UDY2: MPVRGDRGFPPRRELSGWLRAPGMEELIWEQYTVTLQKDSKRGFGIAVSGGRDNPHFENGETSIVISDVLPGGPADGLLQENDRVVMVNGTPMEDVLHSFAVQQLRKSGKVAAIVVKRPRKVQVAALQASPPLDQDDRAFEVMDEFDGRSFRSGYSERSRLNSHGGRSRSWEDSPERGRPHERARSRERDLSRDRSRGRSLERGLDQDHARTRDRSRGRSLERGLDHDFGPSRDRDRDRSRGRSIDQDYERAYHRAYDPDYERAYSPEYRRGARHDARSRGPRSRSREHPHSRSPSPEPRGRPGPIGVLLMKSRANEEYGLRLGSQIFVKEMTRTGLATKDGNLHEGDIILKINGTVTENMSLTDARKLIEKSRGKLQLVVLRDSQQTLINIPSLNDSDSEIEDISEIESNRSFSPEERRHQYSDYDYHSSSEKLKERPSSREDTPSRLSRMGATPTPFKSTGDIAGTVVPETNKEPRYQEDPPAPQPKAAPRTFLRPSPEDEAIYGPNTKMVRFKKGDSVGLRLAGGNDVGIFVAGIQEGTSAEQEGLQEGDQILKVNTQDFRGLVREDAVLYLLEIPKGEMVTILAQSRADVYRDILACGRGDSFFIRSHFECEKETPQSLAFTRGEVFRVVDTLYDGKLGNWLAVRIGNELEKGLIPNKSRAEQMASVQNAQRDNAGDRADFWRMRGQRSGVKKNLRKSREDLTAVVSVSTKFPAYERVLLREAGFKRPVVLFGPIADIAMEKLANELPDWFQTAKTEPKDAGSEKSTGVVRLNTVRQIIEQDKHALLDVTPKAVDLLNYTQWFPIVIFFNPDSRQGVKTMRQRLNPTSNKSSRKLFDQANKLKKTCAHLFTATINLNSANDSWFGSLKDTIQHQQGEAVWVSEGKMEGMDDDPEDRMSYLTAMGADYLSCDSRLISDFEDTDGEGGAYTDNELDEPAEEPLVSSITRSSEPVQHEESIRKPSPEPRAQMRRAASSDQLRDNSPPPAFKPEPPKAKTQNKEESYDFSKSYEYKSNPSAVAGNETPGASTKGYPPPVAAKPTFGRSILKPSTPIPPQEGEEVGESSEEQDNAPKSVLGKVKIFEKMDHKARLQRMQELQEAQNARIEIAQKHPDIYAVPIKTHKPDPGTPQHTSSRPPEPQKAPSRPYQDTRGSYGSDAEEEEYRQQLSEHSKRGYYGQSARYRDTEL
UniProt Q9H7F4: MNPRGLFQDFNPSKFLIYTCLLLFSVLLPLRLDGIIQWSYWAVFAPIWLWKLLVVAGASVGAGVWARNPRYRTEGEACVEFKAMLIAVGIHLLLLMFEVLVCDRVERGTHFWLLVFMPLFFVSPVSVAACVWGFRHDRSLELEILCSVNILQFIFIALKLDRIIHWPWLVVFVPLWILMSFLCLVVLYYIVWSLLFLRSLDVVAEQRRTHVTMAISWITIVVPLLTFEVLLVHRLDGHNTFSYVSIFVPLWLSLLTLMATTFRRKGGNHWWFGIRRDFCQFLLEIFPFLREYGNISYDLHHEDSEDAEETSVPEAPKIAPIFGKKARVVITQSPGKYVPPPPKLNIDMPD
UniProt Q92544: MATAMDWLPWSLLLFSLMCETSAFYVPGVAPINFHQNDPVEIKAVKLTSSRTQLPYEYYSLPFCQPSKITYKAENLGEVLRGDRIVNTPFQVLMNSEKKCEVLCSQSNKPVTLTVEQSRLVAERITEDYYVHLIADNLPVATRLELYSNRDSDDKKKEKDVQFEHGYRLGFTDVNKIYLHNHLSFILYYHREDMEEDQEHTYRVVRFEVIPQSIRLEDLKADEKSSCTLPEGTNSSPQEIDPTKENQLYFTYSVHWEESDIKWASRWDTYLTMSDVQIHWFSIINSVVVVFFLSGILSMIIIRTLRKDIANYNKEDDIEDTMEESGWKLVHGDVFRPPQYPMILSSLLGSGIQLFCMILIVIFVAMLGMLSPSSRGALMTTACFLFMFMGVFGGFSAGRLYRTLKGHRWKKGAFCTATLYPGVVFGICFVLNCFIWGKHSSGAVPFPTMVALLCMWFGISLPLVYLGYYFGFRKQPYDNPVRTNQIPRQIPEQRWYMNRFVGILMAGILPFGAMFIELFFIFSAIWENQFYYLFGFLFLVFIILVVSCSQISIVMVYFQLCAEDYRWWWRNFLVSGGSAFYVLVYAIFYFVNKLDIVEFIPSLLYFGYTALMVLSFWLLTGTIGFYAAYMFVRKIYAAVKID
UniProt Q5U3C3: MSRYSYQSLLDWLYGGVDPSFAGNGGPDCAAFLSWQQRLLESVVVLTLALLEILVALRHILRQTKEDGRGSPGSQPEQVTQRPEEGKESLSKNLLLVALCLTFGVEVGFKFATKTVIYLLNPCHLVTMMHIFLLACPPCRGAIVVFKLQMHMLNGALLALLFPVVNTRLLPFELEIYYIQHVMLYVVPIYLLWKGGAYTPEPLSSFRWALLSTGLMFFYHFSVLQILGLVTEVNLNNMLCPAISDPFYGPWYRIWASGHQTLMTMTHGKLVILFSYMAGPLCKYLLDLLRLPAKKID
UniProt Q8IYQ7: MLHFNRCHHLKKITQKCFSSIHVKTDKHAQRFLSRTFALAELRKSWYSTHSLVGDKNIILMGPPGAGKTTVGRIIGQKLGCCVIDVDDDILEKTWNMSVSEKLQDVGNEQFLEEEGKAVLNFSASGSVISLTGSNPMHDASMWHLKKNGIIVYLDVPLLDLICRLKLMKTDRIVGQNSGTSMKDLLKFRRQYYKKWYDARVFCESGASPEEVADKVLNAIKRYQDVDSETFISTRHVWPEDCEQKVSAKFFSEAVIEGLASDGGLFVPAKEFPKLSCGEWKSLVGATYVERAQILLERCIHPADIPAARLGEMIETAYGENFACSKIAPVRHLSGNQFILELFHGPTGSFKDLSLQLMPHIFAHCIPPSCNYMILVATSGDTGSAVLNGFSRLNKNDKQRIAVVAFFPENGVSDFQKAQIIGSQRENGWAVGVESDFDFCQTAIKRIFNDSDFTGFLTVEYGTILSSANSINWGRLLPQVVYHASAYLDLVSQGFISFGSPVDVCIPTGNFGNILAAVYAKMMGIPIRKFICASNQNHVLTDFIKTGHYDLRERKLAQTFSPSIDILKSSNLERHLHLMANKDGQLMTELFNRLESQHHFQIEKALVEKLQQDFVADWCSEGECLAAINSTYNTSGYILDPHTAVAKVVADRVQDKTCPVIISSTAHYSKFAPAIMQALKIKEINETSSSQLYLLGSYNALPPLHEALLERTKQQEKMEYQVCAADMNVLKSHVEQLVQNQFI
UniProt P55061, whole entry, looked up: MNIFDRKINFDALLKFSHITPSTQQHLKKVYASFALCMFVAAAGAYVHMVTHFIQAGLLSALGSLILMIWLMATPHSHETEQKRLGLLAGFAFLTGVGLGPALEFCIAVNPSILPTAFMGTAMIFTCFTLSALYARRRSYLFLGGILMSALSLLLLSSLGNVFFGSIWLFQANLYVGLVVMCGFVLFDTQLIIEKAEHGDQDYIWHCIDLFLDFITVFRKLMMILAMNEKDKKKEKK
UniProt Q96DC7: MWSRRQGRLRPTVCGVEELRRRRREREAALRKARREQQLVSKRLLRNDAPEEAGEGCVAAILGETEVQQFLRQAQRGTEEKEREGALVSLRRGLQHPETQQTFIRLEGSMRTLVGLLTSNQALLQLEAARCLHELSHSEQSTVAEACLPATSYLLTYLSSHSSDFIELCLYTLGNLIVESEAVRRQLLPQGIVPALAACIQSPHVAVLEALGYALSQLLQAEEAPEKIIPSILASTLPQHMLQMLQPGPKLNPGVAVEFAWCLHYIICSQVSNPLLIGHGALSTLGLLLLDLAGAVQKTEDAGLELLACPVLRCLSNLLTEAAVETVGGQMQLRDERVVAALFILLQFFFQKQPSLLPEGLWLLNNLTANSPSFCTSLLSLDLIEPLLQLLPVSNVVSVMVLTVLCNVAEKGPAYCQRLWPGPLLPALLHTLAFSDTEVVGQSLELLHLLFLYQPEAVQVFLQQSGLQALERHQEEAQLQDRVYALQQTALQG
UniProt Q13769: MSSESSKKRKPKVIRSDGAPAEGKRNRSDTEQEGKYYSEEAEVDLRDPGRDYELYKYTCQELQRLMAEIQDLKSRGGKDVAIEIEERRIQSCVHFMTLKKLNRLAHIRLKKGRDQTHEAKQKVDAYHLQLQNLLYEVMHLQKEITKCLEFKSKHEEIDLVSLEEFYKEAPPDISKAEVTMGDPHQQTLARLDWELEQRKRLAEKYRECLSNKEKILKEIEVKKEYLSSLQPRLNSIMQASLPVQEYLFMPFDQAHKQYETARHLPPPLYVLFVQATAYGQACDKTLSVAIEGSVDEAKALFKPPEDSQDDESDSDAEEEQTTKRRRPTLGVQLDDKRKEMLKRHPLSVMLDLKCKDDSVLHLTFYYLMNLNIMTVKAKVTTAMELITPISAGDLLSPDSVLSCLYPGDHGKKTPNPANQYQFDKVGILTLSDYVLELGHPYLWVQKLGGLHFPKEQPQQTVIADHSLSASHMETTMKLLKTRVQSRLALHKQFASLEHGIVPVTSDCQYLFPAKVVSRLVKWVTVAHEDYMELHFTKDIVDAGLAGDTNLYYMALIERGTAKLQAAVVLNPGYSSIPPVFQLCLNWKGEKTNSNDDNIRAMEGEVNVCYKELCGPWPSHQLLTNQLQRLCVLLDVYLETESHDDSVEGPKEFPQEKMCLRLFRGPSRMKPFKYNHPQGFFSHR
UniProt Q04727: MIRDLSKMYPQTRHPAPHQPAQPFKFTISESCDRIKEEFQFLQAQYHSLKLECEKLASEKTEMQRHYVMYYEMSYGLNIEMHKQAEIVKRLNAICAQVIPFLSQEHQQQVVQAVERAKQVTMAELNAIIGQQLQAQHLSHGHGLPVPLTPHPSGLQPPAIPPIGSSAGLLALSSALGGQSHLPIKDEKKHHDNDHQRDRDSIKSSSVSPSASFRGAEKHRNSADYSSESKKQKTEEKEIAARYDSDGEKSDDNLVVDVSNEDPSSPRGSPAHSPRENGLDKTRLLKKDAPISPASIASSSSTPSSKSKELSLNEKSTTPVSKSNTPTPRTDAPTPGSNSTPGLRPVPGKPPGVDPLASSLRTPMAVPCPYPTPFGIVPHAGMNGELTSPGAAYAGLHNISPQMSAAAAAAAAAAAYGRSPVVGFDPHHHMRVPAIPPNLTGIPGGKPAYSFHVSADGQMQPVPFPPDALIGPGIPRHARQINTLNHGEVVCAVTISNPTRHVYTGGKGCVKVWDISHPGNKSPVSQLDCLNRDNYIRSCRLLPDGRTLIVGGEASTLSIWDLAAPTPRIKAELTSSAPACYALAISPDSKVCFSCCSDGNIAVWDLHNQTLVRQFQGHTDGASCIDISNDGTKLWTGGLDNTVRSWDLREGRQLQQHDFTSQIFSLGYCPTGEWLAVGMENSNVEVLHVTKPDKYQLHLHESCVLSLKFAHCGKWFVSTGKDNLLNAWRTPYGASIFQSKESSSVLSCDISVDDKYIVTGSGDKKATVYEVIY

Compound: CNc1nc(-c2ccc3c(N)n[nH]c3c2)cc(N2C[C@@H](C(=O)NC3CCCCC3)CC[C@H]2C)n1
Assay: log2 fold change, soluble protein after heating vs DMSO (PISA); higher = thermal stabilisation; K562 lysate, 10 uM; active = over 0.2 and 3.5 SD of the protein, either way, in both replicates (recomputed)
Method in brief: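 To prepare the extract, K562 pellets were dounce-homogenised in PBS pH 7.4 with 1 mM MgCl2, giving crude material at 1 mg/mL protein. This was treated with 10 μM compound for 30 min, then heated in aliquots for 3 min over 48°C-58°C before pooling and addition of NP-40 to 0.5% at 4°C. Centrifugation at 21,000xg for 90 min left soluble protein in the supernatant, which TMTpro 16plex LC-MS/MS quantified with equalised channel sums. Results are log-two fold changes in thermal stability compared with solvent controls, from duplicates.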

log2 fold change, inactive:
TICAM2 isoform 2 (UniProt Q86XR7) -0.191
THUMPD2 (UniProt Q9BTF0) 0.056
TMCO1 (UniProt Q9UM00) 0.045
TGOLN2 isoform 7 (UniProt O43493) 0.045
TMBIM1 (UniProt Q969X1) -0.087
TMEM120A (UniProt Q9BXJ8) 0.157
TIMMDC1 (UniProt Q9NPL8) 0.048
TIMM23 (UniProt O14925) 0.026
TJP2 isoform 7 (UniProt Q9UDY2) -0.008
TMEM185B (UniProt Q9H7F4) -0.077
TM9SF4 (UniProt Q92544) -0.008
TMEM168 (UniProt Q9H0V1) -0.007
TMEM164 (UniProt Q5U3C3) 0.333
THYN1 (UniProt Q9P016) -0.007
THNSL1 (UniProt Q8IYQ7) -0.115
TMBIM6 isoform 2 (UniProt P55061) 0.064
THOP1 (UniProt P52888) 0.004
TMCO6 isoform 2 (UniProt Q96DC7) -0.031
TMEM109 (UniProt Q9BVC6) 0.067
THOC5 (UniProt Q13769) -0.016
THOC1 (UniProt Q96FV9) -0.037
TLE4 isoform 3 (UniProt Q04727) 0.01

For reference, part of the list above:
log2 fold change, inactive:
TMEM168 (UniProt Q9H0V1) -0.007
TMEM164 (UniProt Q5U3C3) 0.333
